This test has as its target N-terminal V5His-tagged version of full-length hC1Q/TNF7 (human) (UniProt Q9BXJ2). In words: self-association; SDS-PAGE non-reduced or reduced, with or without heating; anti-V5 Western blot. Background: In western blotting, separated proteins are transferred to a membrane and probed.

Results are given in words; binding and its absence hold for the method and conditions named. Some entries that bind do so weakly or less than the wild type. Sequences can lack the tags named with a protein.

B1: full-length hC1Q/TNF7, carboxy-terminal V5His6-tagged, expressed in HEK-293 cells (ligand)
chain: QPRGNQLKGENYSPRYICSIPGLPGPPGPPGANGSPGPHGRIGLPGRDGRDGRKGEKGEKGTAGLRGKTGPLGLAGEKGDQGETGKKGPIGPEGEKGEVGPIGPPGPKGDRGEQGDPGLPGVCRCGSIVLKSAFSVGITTSYPEERLPIIFNKVLFNEGEHYNPATGKFICAFPGIYYFSYDITLANKHLAIGLVHNGQYRIKTFDANTGNHDVASGSTVIYLQPEDEVWLEIFFTDQNGLFSDPGWADSLFSGFLLYVDTDYLDSISEDDEL
notes: The signal peptide cleavage site is only predicted; Oligomer state as told: dimers, tetramers and higher order oligomers; also called HEK293-expressed full-length hC1Q/TNF7; human C1Q/TNF7; not shown: C-terminal V5His6 tag from the pIntron vector
As for B1, the binding entry is on record as “binds”.

The values above are taken from patent US20050180949A1 (NUVELO, published 2005).
